Data reported in the supplement of paper PMC12819154, “High-throughput peptide-centric local stability assay extends protein–ligand identification to membrane proteins, tissues and bacteria” (Nature Structural & Molecular Biology, 2025).
Some of the results follow. Most entries show no effect beyond the scatter of the controls.

Sequences of proteins named here, by UniProt entry; tags and fusion partners are left off. A change or cut given only in a name is not applied to a line headed by its entry.
UniProt Q9NY97: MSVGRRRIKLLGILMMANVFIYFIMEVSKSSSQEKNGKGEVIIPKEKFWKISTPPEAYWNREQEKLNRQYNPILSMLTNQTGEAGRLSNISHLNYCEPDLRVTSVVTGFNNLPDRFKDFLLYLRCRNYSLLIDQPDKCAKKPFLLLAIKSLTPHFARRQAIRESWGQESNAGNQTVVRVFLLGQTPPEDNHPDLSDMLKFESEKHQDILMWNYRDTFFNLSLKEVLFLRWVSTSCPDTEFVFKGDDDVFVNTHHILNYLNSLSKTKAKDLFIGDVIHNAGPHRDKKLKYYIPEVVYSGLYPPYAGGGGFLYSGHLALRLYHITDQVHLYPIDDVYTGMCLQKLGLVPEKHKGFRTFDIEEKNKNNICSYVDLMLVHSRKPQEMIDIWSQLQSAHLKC
UniProt Q9NYB9: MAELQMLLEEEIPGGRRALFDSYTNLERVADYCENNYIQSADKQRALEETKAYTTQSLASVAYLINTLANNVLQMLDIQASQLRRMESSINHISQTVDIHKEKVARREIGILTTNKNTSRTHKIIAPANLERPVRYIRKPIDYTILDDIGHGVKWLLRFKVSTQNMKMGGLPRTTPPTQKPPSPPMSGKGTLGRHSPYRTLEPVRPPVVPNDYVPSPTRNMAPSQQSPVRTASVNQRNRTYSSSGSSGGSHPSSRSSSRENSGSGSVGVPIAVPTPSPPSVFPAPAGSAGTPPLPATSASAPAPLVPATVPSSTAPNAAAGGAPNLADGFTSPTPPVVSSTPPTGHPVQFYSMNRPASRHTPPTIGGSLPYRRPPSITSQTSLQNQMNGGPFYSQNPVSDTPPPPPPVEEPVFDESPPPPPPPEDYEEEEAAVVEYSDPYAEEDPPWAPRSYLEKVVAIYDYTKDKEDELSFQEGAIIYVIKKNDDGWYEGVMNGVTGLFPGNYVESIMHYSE
UniProt Q9NRF8: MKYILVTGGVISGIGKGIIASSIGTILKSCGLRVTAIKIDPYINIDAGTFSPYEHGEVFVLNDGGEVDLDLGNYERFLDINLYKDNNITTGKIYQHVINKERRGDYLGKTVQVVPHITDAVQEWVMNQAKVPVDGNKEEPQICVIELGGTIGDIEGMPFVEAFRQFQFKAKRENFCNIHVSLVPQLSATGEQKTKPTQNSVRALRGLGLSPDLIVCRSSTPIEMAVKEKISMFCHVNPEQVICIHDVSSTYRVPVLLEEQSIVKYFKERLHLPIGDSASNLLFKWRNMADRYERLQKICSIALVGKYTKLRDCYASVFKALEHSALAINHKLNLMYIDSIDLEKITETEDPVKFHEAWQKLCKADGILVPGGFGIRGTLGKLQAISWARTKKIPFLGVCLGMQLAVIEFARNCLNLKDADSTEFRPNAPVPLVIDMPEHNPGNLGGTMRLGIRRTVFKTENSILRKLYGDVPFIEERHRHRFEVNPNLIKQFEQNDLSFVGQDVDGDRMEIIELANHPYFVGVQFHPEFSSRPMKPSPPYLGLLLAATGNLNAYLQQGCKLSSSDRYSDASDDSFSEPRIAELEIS
UniProt Q9NW08: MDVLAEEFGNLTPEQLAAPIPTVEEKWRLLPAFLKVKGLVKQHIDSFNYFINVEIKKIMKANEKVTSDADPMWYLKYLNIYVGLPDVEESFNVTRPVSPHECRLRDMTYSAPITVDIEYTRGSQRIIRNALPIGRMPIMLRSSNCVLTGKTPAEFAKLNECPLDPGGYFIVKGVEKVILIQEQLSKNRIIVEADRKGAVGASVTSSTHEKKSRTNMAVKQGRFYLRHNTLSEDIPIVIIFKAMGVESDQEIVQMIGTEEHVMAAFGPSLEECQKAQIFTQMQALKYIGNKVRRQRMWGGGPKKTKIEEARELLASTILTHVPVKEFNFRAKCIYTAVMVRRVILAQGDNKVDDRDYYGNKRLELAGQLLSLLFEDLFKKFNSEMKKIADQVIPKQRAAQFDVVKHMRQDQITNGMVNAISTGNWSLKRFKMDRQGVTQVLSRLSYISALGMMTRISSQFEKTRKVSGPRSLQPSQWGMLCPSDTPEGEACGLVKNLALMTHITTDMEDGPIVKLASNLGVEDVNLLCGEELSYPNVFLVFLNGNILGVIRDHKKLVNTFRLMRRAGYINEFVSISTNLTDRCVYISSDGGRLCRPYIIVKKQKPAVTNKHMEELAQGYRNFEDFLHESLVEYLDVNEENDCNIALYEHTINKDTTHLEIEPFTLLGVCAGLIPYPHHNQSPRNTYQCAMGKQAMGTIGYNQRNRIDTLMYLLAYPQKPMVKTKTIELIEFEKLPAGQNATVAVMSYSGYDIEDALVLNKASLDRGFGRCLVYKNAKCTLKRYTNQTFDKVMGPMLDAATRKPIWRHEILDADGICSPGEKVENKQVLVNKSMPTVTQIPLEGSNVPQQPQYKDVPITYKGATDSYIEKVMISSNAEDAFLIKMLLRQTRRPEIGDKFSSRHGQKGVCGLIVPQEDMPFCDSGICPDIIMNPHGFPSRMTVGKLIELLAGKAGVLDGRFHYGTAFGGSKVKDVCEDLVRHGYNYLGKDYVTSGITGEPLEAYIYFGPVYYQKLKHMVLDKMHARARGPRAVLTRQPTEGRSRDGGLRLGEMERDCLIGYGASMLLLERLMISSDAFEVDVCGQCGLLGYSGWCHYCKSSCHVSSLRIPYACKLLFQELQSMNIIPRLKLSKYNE
UniProt Q9NRP2: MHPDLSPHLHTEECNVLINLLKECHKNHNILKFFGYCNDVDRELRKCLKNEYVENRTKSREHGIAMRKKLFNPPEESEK
UniProt Q9NW64: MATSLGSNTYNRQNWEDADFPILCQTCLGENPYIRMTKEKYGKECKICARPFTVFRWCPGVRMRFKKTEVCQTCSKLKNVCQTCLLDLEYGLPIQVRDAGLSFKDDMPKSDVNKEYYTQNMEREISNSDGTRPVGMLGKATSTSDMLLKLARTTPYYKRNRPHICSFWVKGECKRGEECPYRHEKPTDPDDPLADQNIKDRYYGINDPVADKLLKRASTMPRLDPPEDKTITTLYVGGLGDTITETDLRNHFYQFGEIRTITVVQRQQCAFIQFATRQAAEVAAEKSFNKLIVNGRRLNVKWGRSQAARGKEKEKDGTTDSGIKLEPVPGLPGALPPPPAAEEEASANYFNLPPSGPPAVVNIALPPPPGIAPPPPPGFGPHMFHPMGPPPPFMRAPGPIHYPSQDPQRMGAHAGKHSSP
UniProt Q9NQT8: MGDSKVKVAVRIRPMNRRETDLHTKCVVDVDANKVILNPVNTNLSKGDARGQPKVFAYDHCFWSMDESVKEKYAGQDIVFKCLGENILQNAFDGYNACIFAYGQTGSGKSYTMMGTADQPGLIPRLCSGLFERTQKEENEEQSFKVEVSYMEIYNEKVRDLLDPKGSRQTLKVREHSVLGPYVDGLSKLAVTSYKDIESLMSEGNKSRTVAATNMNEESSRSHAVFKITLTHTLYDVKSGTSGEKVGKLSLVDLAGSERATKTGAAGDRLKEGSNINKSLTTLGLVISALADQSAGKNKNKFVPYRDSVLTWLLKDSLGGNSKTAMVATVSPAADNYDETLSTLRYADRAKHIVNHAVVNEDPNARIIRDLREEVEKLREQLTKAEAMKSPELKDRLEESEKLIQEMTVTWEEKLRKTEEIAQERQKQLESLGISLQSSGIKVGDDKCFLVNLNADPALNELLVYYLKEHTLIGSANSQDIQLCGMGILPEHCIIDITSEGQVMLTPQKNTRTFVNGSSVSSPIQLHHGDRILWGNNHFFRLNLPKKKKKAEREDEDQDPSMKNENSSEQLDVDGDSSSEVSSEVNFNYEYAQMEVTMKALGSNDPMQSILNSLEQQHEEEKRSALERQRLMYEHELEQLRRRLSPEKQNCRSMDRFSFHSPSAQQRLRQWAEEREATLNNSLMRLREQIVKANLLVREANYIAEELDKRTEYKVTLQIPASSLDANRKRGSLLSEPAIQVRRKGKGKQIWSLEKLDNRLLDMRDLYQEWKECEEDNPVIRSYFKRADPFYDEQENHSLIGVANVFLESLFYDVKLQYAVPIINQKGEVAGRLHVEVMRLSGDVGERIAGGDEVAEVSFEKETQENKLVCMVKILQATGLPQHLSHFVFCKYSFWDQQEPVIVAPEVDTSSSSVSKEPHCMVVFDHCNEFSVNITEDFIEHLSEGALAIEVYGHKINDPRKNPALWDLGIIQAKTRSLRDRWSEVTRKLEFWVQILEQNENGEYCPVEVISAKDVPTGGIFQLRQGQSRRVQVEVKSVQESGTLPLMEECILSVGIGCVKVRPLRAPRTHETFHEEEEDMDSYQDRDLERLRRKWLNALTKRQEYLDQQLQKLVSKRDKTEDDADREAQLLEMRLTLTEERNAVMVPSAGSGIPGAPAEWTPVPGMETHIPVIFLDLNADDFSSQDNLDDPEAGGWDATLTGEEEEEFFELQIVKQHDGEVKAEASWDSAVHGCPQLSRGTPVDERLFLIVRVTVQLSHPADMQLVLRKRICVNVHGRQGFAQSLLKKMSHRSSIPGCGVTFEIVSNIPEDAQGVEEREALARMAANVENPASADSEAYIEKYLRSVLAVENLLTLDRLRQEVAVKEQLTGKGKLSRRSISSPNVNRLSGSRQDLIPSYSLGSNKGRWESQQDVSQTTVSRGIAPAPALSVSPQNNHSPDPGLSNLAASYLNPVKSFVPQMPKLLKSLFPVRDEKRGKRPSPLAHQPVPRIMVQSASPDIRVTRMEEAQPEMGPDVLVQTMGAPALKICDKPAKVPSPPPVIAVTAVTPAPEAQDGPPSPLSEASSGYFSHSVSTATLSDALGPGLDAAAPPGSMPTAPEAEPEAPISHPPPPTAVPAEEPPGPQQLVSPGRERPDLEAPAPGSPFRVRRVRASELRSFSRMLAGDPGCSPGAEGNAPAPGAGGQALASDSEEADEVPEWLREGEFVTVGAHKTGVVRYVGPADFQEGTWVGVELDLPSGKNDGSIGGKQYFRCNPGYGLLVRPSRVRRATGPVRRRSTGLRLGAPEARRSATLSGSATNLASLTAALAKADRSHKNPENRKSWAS
UniProt Q9NWD9: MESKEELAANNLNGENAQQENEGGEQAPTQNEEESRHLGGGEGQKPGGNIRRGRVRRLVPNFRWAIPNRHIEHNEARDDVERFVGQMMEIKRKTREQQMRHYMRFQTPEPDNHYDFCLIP
UniProt Q9NWQ4: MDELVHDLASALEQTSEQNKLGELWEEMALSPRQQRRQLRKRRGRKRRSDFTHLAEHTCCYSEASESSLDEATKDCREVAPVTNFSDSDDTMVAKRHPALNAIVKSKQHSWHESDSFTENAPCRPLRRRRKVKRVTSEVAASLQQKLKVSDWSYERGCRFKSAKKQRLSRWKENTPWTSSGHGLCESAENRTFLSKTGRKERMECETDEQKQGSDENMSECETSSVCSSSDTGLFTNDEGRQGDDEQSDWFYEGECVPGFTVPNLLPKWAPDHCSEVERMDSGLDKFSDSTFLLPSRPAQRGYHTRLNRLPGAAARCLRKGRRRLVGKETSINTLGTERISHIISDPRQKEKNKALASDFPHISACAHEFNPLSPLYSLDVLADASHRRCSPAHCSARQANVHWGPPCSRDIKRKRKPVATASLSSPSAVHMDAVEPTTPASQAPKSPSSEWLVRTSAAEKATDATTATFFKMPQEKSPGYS
UniProt Q9NWU1, whole entry: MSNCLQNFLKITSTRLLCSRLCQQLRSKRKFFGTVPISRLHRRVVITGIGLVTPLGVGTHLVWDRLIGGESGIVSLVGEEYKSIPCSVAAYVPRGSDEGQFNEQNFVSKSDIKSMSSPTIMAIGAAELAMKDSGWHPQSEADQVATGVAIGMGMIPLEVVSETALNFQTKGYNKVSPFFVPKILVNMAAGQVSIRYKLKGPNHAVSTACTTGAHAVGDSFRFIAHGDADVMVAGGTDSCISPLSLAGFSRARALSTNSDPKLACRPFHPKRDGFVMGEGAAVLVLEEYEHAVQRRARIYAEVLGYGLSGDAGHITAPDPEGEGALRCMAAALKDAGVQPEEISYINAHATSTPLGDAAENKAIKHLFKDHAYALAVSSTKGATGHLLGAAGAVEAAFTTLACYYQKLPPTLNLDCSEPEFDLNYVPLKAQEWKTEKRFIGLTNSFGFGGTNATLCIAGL
UniProt Q9NYA1, whole entry: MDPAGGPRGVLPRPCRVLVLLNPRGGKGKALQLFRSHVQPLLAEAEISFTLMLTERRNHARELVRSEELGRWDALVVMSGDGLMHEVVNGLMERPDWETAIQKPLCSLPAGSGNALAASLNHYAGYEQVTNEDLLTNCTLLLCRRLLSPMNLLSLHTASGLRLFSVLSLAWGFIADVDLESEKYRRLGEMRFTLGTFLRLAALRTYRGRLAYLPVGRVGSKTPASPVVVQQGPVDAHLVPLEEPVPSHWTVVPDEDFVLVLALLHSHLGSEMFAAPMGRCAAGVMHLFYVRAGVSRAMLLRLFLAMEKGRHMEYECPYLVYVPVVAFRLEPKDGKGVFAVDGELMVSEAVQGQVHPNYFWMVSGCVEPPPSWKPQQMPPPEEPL
UniProt Q9NRW4: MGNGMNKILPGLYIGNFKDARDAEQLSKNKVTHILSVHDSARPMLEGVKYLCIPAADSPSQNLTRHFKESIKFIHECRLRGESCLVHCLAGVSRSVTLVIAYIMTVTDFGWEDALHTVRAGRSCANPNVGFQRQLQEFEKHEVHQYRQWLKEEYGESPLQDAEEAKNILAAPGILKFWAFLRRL

compound: CN[C@@H]1C[C@H]2O[C@@](C)([C@@H]1OC)n1c3ccccc3c3c4c(c5c6ccccc6n2c5c31)C(=O)NC4 [staurosporine]; experiment: log2 fold change of tryptic peptide abundance, ligand vs vehicle (limited proteolysis) (log2 ratio); higher = more trypsin-susceptible (destabilized); conditions: ligand concentration: 20 uM; sample: K562 cleared lysate; digestion: 4 min, 22 C (HT-PELSA RT4min, Orbitrap Astral)

Q: How did the log2 fold change turn out when “B3GNT2 (peptide sequence: DLFIGDVIHNAGPHR, peptide start residue: 269) (UniProt Q9NY97)” was run?
A: Its log2 fold change is 0.297.

Q: With “INTS10 (peptide sequence: LPANLLYK, peptide start residue: 190) (UniProt Q9NVR2)” as the target, how does the log2 fold change read?
A: The log2 fold change was 0.757.

Q: “UniProt Q9NRY2 (peptide sequence: DFRDHAEQQHIAAQQK, peptide start residue: 54)” was tested. Which log2 fold change did it give?
A: Its log2 fold change is -0.566.

Q: How did the log2 fold change turn out when “MRPL39 (peptide sequence: DAHALIYK, peptide start residue: 205) (UniProt Q9NYK5)” was run?
A: The log2 fold change was -0.396.

Q: Which log2 fold change does the source give for “FARSB (peptide sequence: IKAPVYKR, peptide start residue: 91) (UniProt Q9NSD9)” here?
A: The log2 fold change was 0.714.

Q: For “ABI2 (peptide sequence: KPIDYTILDDIGHGVK, peptide start residue: 139) (UniProt Q9NYB9)”, which log2 fold change is on record?
A: The log2 fold change was 0.469.

Q: How did the log2 fold change turn out when “TRNAU1AP (peptide sequence: INGKPLPGATPAKR, peptide start residue: 65) (UniProt Q9NX07)” was run?
A: The log2 fold change was -0.466.

Q: For “AAAS (peptide sequence: GQWINLPVLQLTKDPLK, peptide start residue: 40) (UniProt Q9NRG9)”, which log2 fold change is on record?
A: The log2 fold change was 0.702.

Q: Which log2 fold change does the source give for “CTPS2 (peptide sequence: LYGDVPFIEER, peptide start residue: 467) (UniProt Q9NRF8)” here?
A: The log2 fold change was 0.416.

Q: For “POLR3B (peptide sequence: FHYGTAFGGSK, peptide start residue: 958) (UniProt Q9NW08)”, which log2 fold change is on record?
A: Its log2 fold change is 0.692.

Q: For “UniProt Q9NRP2 (peptide sequence: KLFNPPEESEK, peptide start residue: 69)”, which log2 fold change is on record?
A: Its log2 fold change is -0.188.

Q: For “UniProt Q9NW64 (peptide sequence: GEECPYR, peptide start residue: 176)”, which log2 fold change is on record?
A: The log2 fold change was 0.603.

Q: With “KIF13B (peptide sequence: LKEGSNINK, peptide start residue: 270) (UniProt Q9NQT8)” as the target, how does the log2 fold change read?
A: The log2 fold change was 0.386.

Q: With “BEX4 (peptide sequence: HLGGGEGQKPGGNIRR, peptide start residue: 37) (UniProt Q9NWD9)” as the target, how does the log2 fold change read?
A: The log2 fold change was 0.526.

Q: “WDR70 (peptide sequence: QNEDIEPTSSR, peptide start residue: 76) (UniProt Q9NW82)” was tested. Which log2 fold change did it give?
A: The log2 fold change was -0.15.

Q: “GPATCH2L (peptide sequence: ATDATTATFFK, peptide start residue: 462) (UniProt Q9NWQ4)” was tested. Which log2 fold change did it give?
A: The log2 fold change was -0.326.

Q: For “GGA3 (peptide sequence: SKNPDDLQEANK, peptide start residue: 184) (UniProt Q9NZ52)”, which log2 fold change is on record?
A: Its log2 fold change is -0.149.

Q: For “RBM28 (peptide sequence: GQSLGYAFAEFQEHEHALKALR, peptide start residue: 537) (UniProt Q9NW13)”, which log2 fold change is on record?
A: Its log2 fold change is 0.382.

Q: For “UniProt Q9NVX0 (peptide sequence: NIPHLAANLK, peptide start residue: 155)”, which log2 fold change is on record?
A: Its log2 fold change is -0.83.

Q: “UniProt Q9NVR5 (peptide sequence: VPKPGEQDLSR, peptide start residue: 432)” was tested. Which log2 fold change did it give?
A: The log2 fold change was 0.616.

Q: “KMT5A (peptide sequence: FPLQEENSVTHHEVK, peptide start residue: 109) (UniProt Q9NQR1)” was tested. Which log2 fold change did it give?
A: The log2 fold change was -0.253.

Q: For “TMEM184C (peptide sequence: ISDEILSDTIGEKKEPSDK, peptide start residue: 416) (UniProt Q9NVA4)”, which log2 fold change is on record?
A: The log2 fold change was -0.583.

Q: Which log2 fold change does the source give for “OXSM (peptide sequence: VSPFFVPK, peptide start residue: 175) (UniProt Q9NWU1)” here?
A: The log2 fold change was 0.204.

Q: With “BIRC6 (peptide sequence: VITDPSLSK, peptide start residue: 4012) (UniProt Q9NR09)” as the target, how does the log2 fold change read?
A: The log2 fold change was -0.176.

Q: With “NIT2 (peptide sequence: AVDNQVYVATASPARDDK, peptide start residue: 196) (UniProt Q9NQR4)” as the target, how does the log2 fold change read?
A: Its log2 fold change is 0.546.

Q: With “SPHK1 (peptide sequence: CAAGVMHLFYVRAGVSR, peptide start residue: 280) (UniProt Q9NYA1)” as the target, how does the log2 fold change read?
A: Its log2 fold change is -0.148.

Q: For “DUSP22 (peptide sequence: SCANPNVGFQR, peptide start residue: 123) (UniProt Q9NRW4)”, which log2 fold change is on record?
A: The log2 fold change was -0.137.

Q: “ANO10 (peptide sequence: LVTENLKEEPMESGKEK, peptide start residue: 642) (UniProt Q9NW15)” was tested. Which log2 fold change did it give?
A: The log2 fold change was 0.0725.
